Assay results: paper PMC7476095
No constants are given. Whether binding was seen depends on the method and setting. In cells and extracts the contact can be indirect. A yes stands for co-enrichment or nearness to the bait. Other partners may have been found. Tags and fused reporters may be left off the sequences shown.

Protein sequences, listed by entry. Tags and fused reporters are not part of them.
UniProt P13010: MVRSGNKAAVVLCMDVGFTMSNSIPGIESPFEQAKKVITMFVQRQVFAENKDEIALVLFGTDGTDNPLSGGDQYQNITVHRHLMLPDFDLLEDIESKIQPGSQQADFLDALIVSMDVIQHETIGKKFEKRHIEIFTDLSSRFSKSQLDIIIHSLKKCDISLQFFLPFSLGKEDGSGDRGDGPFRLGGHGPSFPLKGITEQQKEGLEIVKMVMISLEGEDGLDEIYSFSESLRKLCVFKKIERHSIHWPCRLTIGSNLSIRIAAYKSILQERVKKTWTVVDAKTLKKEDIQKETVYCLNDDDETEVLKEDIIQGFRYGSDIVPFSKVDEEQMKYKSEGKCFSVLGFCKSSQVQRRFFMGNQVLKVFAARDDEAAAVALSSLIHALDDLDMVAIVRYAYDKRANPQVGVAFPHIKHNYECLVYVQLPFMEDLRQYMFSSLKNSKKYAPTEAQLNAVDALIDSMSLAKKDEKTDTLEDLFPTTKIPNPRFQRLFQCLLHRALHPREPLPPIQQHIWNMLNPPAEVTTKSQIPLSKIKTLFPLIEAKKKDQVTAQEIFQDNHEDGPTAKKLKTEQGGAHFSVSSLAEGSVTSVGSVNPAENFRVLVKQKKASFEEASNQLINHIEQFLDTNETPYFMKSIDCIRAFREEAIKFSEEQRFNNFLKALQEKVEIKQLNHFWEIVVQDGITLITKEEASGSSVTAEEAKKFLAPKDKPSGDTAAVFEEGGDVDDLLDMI

Target: T1, FLAG-tagged wild type MAD1 (mitotic arrest-deficient protein 1) (UniProt Q9Y6D9)
T1 sequence: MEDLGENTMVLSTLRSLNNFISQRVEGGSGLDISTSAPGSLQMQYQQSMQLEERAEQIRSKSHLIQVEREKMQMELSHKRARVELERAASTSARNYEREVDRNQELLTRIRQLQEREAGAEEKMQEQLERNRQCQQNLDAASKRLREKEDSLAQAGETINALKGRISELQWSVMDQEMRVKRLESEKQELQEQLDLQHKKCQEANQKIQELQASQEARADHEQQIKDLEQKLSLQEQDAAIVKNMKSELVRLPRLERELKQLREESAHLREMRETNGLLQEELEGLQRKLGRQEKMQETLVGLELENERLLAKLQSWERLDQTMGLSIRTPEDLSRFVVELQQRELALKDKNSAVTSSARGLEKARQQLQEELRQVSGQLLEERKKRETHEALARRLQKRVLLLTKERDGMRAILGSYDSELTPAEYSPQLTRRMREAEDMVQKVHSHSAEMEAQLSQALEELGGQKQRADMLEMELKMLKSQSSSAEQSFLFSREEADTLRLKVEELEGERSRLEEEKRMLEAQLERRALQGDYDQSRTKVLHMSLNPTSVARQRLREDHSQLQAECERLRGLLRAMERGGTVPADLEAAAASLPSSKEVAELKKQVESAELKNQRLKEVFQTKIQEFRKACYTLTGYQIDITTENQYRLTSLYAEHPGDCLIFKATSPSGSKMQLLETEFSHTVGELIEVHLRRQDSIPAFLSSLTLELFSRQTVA
Experiment: affinity purification with mass spectrometry; FLAG immunoprecipitates from HeLa cells expressing FLAG-MAD1 (wild type or S214A), mock or IR; silver-stained gel bands that changed, in-gel trypsin digestion, LC-MS/MS; normal IgG control in parallel

KU80 (from UniProt P13010 1-732)
binding: binds
